Laboratory results reported in article PMC6629679.
These are yes or no findings as the source states them, for the method shown. Binding seen in cells or lysates may run through a third protein. Some entries that bind do so weakly or less than the wild type. Where a sequence is shown, tags or fusion partners need not be part of it. Each block holds one molecule with its values, some of them ahead of it.

The chains behind the UniProt entries cited, without tags or fusion partners.
UniProt Q12923: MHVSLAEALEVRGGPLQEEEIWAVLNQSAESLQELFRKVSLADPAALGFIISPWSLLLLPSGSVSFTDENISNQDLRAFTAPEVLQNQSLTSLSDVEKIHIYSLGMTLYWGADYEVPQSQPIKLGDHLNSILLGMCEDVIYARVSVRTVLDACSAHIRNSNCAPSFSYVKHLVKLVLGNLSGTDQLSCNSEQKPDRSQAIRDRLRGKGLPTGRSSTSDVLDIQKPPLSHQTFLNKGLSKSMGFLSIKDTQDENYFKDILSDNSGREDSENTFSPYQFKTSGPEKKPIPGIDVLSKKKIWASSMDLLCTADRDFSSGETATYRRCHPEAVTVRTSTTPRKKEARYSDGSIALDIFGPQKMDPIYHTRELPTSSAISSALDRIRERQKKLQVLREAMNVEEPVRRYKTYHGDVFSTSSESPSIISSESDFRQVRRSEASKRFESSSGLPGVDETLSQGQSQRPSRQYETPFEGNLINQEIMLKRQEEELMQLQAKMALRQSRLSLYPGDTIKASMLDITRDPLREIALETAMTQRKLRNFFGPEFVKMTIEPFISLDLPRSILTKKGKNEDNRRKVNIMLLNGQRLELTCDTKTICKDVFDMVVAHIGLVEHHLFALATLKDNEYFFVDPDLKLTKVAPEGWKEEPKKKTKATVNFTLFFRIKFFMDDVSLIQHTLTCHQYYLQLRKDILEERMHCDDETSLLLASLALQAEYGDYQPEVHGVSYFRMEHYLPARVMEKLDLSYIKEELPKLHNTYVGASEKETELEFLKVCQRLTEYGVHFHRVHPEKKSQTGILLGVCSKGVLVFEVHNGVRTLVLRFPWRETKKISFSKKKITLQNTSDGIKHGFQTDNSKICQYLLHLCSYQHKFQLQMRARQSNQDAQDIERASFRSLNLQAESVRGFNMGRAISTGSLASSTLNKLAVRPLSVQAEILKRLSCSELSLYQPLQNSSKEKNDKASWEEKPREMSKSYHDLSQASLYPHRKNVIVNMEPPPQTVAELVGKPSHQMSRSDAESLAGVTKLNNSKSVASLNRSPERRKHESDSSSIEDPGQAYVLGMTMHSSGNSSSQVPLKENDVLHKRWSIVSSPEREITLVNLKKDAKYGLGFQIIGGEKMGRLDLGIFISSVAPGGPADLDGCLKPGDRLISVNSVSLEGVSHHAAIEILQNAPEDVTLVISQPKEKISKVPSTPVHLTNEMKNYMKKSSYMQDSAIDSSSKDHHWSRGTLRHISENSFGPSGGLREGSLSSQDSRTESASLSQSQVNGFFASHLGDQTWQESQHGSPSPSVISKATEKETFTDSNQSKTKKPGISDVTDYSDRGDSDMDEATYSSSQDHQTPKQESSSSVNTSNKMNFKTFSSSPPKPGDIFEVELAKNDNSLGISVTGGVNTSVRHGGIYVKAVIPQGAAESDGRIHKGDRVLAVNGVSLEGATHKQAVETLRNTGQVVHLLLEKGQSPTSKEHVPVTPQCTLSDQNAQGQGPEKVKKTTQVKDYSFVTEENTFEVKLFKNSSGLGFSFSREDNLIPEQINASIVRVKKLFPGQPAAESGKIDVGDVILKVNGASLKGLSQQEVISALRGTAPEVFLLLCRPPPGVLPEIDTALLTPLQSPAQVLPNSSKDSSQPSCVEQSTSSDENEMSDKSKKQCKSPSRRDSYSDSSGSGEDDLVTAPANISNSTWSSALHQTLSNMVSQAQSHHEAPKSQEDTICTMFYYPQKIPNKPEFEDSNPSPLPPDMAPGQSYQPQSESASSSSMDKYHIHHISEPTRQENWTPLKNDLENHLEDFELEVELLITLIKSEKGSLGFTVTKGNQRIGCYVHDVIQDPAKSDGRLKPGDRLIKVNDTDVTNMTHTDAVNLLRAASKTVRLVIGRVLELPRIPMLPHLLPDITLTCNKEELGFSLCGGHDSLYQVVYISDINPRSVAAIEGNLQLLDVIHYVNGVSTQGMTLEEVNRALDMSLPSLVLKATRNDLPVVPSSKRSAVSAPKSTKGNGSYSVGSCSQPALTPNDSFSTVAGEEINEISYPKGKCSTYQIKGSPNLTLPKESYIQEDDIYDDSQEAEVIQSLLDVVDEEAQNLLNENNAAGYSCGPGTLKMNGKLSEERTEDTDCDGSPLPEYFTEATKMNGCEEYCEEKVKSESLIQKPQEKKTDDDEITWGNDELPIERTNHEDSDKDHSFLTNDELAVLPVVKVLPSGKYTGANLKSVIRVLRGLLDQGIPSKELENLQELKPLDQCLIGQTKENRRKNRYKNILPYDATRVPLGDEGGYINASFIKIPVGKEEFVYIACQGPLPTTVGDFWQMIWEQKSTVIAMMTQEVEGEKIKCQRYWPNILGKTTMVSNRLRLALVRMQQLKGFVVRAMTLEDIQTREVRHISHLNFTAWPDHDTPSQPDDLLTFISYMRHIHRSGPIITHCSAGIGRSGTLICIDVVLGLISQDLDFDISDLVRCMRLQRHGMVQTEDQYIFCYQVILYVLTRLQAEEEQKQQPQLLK

Columns and labels:
[1] = molecular target: T1, GFP-ENTR1 wild-type (endosome associated trafficking regulator 1, N-terminal EGFP) (UniProt Q96C92); experiment: co-IP; HeLa cells transfected with GFP-tagged ENTR1 constructs; GFP-Trap_A for 3 h at 4 °C in lysis buffer (50 mM HEPES pH 7.5, 150 mM NaCl, 1.5 mM MgCl2, 1 mM EDTA, 10% glycerol, 1% Triton X-100); western blot for endogenous PTPN13
T1 sequence: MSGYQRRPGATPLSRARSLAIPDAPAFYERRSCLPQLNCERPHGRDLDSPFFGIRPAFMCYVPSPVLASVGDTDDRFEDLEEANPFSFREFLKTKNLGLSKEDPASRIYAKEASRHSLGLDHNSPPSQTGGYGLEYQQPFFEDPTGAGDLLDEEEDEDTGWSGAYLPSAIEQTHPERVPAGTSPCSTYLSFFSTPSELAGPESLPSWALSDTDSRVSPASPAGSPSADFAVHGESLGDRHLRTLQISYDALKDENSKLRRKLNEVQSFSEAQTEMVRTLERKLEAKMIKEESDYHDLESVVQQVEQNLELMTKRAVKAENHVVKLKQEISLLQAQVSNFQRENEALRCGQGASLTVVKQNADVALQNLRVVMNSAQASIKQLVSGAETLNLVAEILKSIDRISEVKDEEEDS

[2] = molecular target: T2, GST-ENTR1 (fusion protein of GST and full length ENTR1) (UniProt Q96C92); experiment: pull-down; GST fusion protein or GST control on beads, incubated with HeLa cell lysate for 4 h at 4 °C; washed five times with 0.5% Triton X-100 in PBS; western blot; only the target purified
T2 sequence: T1 sequence

- binding [1]: binds
Molecule: PTPN13, endogenous full-length (from UniProt Q12923 1-2485)

- binding [2]: no binding
B1: Pallidin, endogenous (protein, UniProt Q9UL45 1-172)
chain: MSVPGPSSPDGALTRPPYCLEAGEPTPGLSDTSPDEGLIEDLTIEDKAVEQLAEGLLSHYLPDLQRSKQALQELTQNQVVLLDTLEQEISKFKECHSMLDINALFAEAKHYHAKLVNIRKEMLMLHEKTSKLKKRALKLQQKRQKEELEREQQREKEFEREKQLTARPAKRM
